Data source: PubChem BioAssay AID504774 (Drosophila RNAi Screening Center, 2011)

- Test: 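Fly genes whose loss alters survival after alkylation damage to DNA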 (primary screen)
- Cells: Drosophila Kc167 cells
- Reagent: long dsRNA against Drosophila genes, about 0.25 µg dsRNA per well
- Time to read-out: about 6 days: 3 days knock-down, then 3 days with or without MMS
- Conditions: methyl methanesulphonate 0.004% (w/v) for 3 days after knock-down
- Detection: 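ATP-dependent luminescence as a measure of live cells in MMS-exposed wells, quantile normalised within each plate, with replicate values also given as a mean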
- Reading the numbers: mean viability with MMS and viability with MMS: higher = more surviving cells after MMS
The screen tested about 23,000 reagents; this is an unselected part of those with a known target gene and a result. 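Values are quantile-normalised luminescence on an arbitrary scale; higher means more cells surviving MMS.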 Not all columns of the deposit are shown.

Knock-down of Prtl99C (Protamine-like 99C) [DRSC15049] resulted in: mean viability with MMS 3.48e6; viability with MMS, replicate 1 = 3.97e6. CG32196 [DRSC09548] scored mean viability with MMS 3.63e6; viability with MMS, replicate 1 = 4.22e6. For qkr54B (quaking related 54B) [DRSC07670] the deposit lists mean viability with MMS 3.71e6; viability with MMS, replicate 1 = 4.07e6. With knock-down of CG14609 [DRSC12553] the results were mean viability with MMS 3.50e6; viability with MMS, replicate 1 = 4.04e6. Depletion of Nlg4 (Neuroligin 4) [DRSC15108] gave: mean viability with MMS 3.66e6; viability with MMS, replicate 1 = 4.13e6. Nlg4 (Neuroligin 4) [DRSC15109] scored mean viability with MMS 3.61e6; viability with MMS, replicate 1 = 4.06e6.

Against Nlg4 (Neuroligin 4) [DRSC15700], the values are mean viability with MMS 3.60e6; viability with MMS, replicate 1 = 4.05e6. For Nlg4 (Neuroligin 4) [DRSC15701], the entry reads mean viability with MMS 2.82e6; viability with MMS, replicate 1 = 3.57e6. For Nlg4 (Neuroligin 4) [DRSC22243], the entry reads mean viability with MMS 3.32e6; viability with MMS, replicate 1 = 3.82e6. Depletion of eas (easily shocked) [DRSC20329] resulted in: mean viability with MMS 3.31e6; viability with MMS, replicate 1 = 3.72e6. For Sirt2 (Sirtuin 2) [DRSC15714], the entry reads mean viability with MMS 3.57e6; viability with MMS, replicate 1 = 3.95e6. For ranshi [DRSC16564], the values are mean viability with MMS 3.54e6; viability with MMS, replicate 1 = 4.01e6.

After knock-down of POLDIP2 (Polymerase (DNA-directed), delta interacting protein 2) [DRSC12194], the screen gave mean viability with MMS 3.72e6; viability with MMS, replicate 1 = 4.31e6. Depletion of Obp50e (Odorant-binding protein 50e) [DRSC06434] gave: mean viability with MMS 3.53e6; viability with MMS, replicate 1 = 3.94e6.

As entered above:
For “mean viability with MMS”, Nlg4 (Neuroligin 4) [DRSC15108] has 3.66e6
Result of ranshi [DRSC16564] in “mean viability with MMS”: 3.54e6
Result of Prtl99C (Protamine-like 99C) [DRSC15049] under “mean viability with MMS”: 3.48e6
For “mean viability with MMS”, Obp50e (Odorant-binding protein 50e) [DRSC06434] shows 3.53e6

Additional results:
After knock-down of CG4053 [DRSC15538] the results were mean viability with MMS 3.53e6; viability with MMS, replicate 1 = 4.07e6. CCHa2 (CCHamide-2) [DRSC14835] scored mean viability with MMS 3.81e6; viability with MMS, replicate 1 = 4.10e6. For Sptr (Sepiapterin reductase) [DRSC18719] the deposit lists mean viability with MMS 3.74e6; viability with MMS, replicate 1 = 4.23e6. Knock-down of CG5645 [DRSC10532] resulted in: mean viability with MMS 3.35e6; viability with MMS, replicate 1 = 3.73e6. Depletion of CG4363 [DRSC04465] resulted in: mean viability with MMS 3.56e6; viability with MMS, replicate 1 = 4.09e6. Against CG5953 [DRSC01546] the deposit lists mean viability with MMS 3.45e6; viability with MMS, replicate 1 = 3.94e6.

CG5953 [DRSC02914] showed mean viability with MMS 2.95e6; viability with MMS, replicate 1 = 3.53e6. After knock-down of CG15865 [DRSC19733], the record shows mean viability with MMS 3.60e6; viability with MMS, replicate 1 = 4.13e6. Against CG10949 [DRSC02112], the values are mean viability with MMS 3.45e6; viability with MMS, replicate 1 = 3.99e6. CG15260 [DRSC01977] showed mean viability with MMS 3.60e6; viability with MMS, replicate 1 = 4.07e6.
